Data from PubChem BioAssay AID1671190 (National Center for Advancing Translational Sciences (NCATS), 2021).
The campaign covered roughly 580,000 compounds. About 6,100 (1.1%) were called active. The shares of active, inactive and inconclusive entries below differ from those in the screen. Calls follow the shape of the dose curve; as a rule, active = well fitted inhibition curve with a large enough effect; inconclusive = small, poorly fitted or top-dose-only effect, or another doubt; inactive = no such curve, though single readings can be large or run the other way. A potency beside an inconclusive call is a rough fit, not a confirmed value.

Chains of the proteins cited; added tags and fusions are not shown. Lines headed by an entry give the natural chain unless they say otherwise; changes in a name come on top.
UniProt P18054: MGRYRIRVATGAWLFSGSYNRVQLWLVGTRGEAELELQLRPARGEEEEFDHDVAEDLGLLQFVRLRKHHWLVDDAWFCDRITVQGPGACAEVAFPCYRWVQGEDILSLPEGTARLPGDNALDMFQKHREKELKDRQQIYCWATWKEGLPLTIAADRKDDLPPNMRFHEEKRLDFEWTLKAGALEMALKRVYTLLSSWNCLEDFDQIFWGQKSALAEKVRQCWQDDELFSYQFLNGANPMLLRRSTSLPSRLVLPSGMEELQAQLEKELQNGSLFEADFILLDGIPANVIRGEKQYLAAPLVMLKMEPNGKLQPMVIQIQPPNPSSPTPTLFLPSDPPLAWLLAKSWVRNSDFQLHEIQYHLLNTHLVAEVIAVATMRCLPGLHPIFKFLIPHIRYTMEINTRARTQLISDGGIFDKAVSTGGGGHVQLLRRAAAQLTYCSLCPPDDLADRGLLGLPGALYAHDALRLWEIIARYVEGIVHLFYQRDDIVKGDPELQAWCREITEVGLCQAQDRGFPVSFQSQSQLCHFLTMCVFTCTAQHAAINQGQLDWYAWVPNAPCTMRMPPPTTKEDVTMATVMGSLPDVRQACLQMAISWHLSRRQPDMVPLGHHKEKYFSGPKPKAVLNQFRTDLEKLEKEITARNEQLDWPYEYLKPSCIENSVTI

Target: Polyunsaturated fatty acid lipoxygenase ALOX12 (Homo sapiens) (UniProt P18054)
Test: Primary qHTS assay for inhibitors of human arachidonate 12S-lipoxygenase (ALOX12): Round 2
Conditions: purified 12hLO, xylenol orange hydroperoxide absorbance; activity change, negative = inhibition: at 108 µM (top of the series) unless noted
Procedure, shortened: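 Purified human 12hLO at 150 nM in 25 mM Hepes, 0.01% Triton X-100, pH 7.0, preincubated 15 min at room temperature with compound. Reaction started with 40 uM arachidonic acid, 30 min at room temperature. Hydroperoxide measured by Fe-xylenol orange, 573/405 nm absorbance ratio.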
% is scaled to controls: 0 for no effect and ±100 for the full control effect; potency is read from the fitted curve at half-maximal effect.

| SMILES | Potency | activity change, negative = inhibition |
| --- | --- | --- |
| Cc1cc2nc(COC(=O)c3ccc(NC(=O)c4ccc(F)cc4)cc3)cc(=O)n2o1 | inconclusive: 1.26 µM [inhibitor, partial curve, poor fit] | – |
| O=C(CCN1CCN(C/C=C/c2ccccc2)CC1)Nc1cccc(F)c1 | inactive | – |
| O=C(CN1CCCC1C(=O)Nc1ccc(Cl)cc1Cl)Nc1ccc(F)cc1F (stereo not drawn) | inconclusive: 44.7 µM [inhibitor, partial curve, poor fit] | – |
| COC(=O)c1cc(S(=O)(=O)N2CCN(Cc3ccccc3)CC2)c[nH]1 | inactive | – |
| COc1ccc2c(CC(=O)Nc3nc(C)cs3)coc2c1 | inconclusive: 100 µM [inhibitor, single point] | – |
| Nc1[nH]c2cc([N+](=O)[O-])ccc2c1-c1ccccn1 | inconclusive: 89.1 µM [inhibitor, partial curve, poor fit] | – |
| COc1cccc(-n2c(C)c(C)c3c2ncn2nc(-c4ccco4)nc32)c1 | inconclusive: 112 µM [inhibitor, partial curve, poor fit] | – |
| O=C(O)C1CCc2nnc(C3CCCN([S+](=O)([O-])c4ccccc4)C3)n21 (stereo not drawn) | inconclusive: 8.91 µM [inhibitor, full curve, poor fit] | – |
| Cc1ccc(-n2ncc(C(=O)Nc3ccc(Cl)cc3)c2C2CCNCC2)cc1C | inactive | – |
| O=C(Cn1ncc2c3ccccc3n(Cc3ccccc3F)c2c1=O)NC1CC1 | inactive | – |
| CCCCNC(=O)c1nc2cc(C)c(C)cc2nc1-c1cccc(Br)c1 | inactive | – |
| O=C1CCC[C@H]2[C@@H](Cc3ccccc3)[C@H](N(Cc3ccccc3)Cc3ccccc3)CC[C@]23CCCN13 | inconclusive: 100 µM [inhibitor, single point] | – |
| CN1CCCN(S(=O)(=O)c2ccc(Cl)s2)c2ccccc21 | inconclusive: 50.1 µM [inhibitor, partial curve] | – |
| O=C1COc2ccc(-c3ccc(Cl)cc3)nc2CN1Cc1ccccc1 | inconclusive: 12.6 µM [inhibitor, full curve] | – |
| Cc1ccc(C(=O)NC[C@H]2O[C@@H](CC(=O)NC(C)C)[C@H](O)[C@@H]2O)cc1 | inconclusive: 15.8 µM [inhibitor, full curve] | – |
| CCCCCNC(=O)C(c1cccc2ccccc12)n1c(=O)c(-c2ccco2)nc2ccccc21 (stereo not drawn) | active: 10 µM | – |
| CC(C)(C)NC(=O)/C(=C\c1ccc(-c2ccc(Cl)cc2Cl)o1)NC(=O)c1ccccc1 | inconclusive: 126 µM [inhibitor, single point] | – |
| CCOC(=O)c1c(NC(=O)c2cccs2)sc(C(=O)N(C)C)c1C | inconclusive: 79.4 µM [inhibitor, single point] | – |
| Cc1ccccc1C(=O)Nc1sc2c(c1C(=O)N1CCCCC1)CCC(C(C)(C)C)C2 (stereo not drawn) | inconclusive: 56.2 µM [inhibitor, partial curve, poor fit] | – |
| Cn1c(=O)c2c(nc(NCCCc3ccccc3)n2Cc2cccc(Cl)c2)n(C)c1=O | inconclusive: 3.55 µM [inhibitor, full curve, poor fit] | – |
| C=CCNC(=O)C1CC1(c1cccc(C)c1)c1cccc(C)c1 (stereo not drawn) | inactive | – |
| CCn1cc(CN2CCCC(C(=O)Nc3cccc(-c4cc5ccccc5[nH]4)c3)C2)c(C)n1 (stereo not drawn) | inconclusive: 8.91 µM [inhibitor, full curve, poor fit] | – |
| COC(=O)c1ccncc1C(=O)Nc1ccc(Oc2ncc(C(F)(F)F)cc2Cl)cc1 | inactive | – |

| SMILES | Potency | activity change, negative = inhibition |
| --- | --- | --- |
| CCOC(=O)C1CCCN(Cc2ccc(O)c(OC)c2)C1 (stereo not drawn) | inconclusive: 0.199 µM [inhibitor, full curve, poor fit] | – |
| CCc1nn(C(C)C(=O)N2CC(C)CC(C)C2)c(=O)c2cc3occc3n12 (stereo not drawn) | inactive | – |
| O=C(CNCc1ccc(Cl)cc1)NCc1ccco1 | inactive | – |
| O=C1CC(c2ccco2)Cc2nc(Nc3ccc(F)cc3)ncc21 (stereo not drawn) | inconclusive: 100 µM [inhibitor, partial curve, poor fit] | – |
| CCC(=S)/C=C1\Sc2ccccc2N1CCCS(=O)(=O)O | inconclusive: 15.8 µM [inhibitor, partial curve, poor fit] | – |
| CCC(C)n1c(SCc2ccc(F)cc2Cl)nc2ccsc2c1=O (stereo not drawn) | inconclusive: 31.6 µM [inhibitor, partial curve, poor fit] | – |
| COc1ccccc1N(C)S(=O)(=O)c1ccc(C(=O)Nc2cccc(S(=O)(=O)N3CCOCC3)c2)cc1 | inactive | – |
| CNc1c(C(=O)O)ccc2c1C(=O)c1ccccc1C2=O | inactive | – |
| Cc1ccc(-c2noc([C@@H]3CCCN3C(=O)c3cc(F)ccc3Cl)n2)cc1 | inconclusive: 10 µM [inhibitor, full curve] | – |
| CCN1CCN(c2ccc(S(=O)(=O)N3CCCCC3)cc2NC(=O)/C=C/c2cc(OC)ccc2OC)CC1 | inconclusive: 56.2 µM [inhibitor, partial curve, poor fit] | – |
| N#Cc1ccc(C#Cc2ccc3oc4ccccc4c(=O)c3c2)cc1 | inactive | – |
| CC1CCCN(C(=O)c2ccc3ncsc3c2)C1 (stereo not drawn) | inactive | – |
| O=CN1CCN(C(C(=O)O)c2c[nH]c3ccc(NC(=O)c4ccccc4)cc23)CC1 (stereo not drawn) | inconclusive: 56.2 µM [inhibitor, partial curve, poor fit] | – |
| COC(=O)c1ccc(NC(=O)c2ccc3c(c2)C(=O)N(C)C3=O)cc1 | inactive | – |
| CC[N+](CC)(CC)CCOc1cccc(OCC[N+](CC)(CC)CC)c1OCC[N+](CC)(CC)CC | inconclusive: 6.85 µM [inhibitor, partial curve] | – |
| N=c1c2c(n(Cc3ccc(Br)cc3)c3c1CCC3)CCCC2 | inactive | – |
| COc1ccc(-c2nc3ccc(N4CCN(C)CC4)cc3c(=O)[nH]2)cc1 | inactive | – |
| CC1=CC(C)(C)SC(N)=N1 | inconclusive: 100 µM [inhibitor, single point] | – |
| CCc1ccc2oc(C(=O)Nc3ccc(OC)cc3)cc(=O)c2c1 | inactive | – |
| Cc1nc(SCCOc2ccccc2)[nH]c(=O)c1Cc1ccccc1 | inconclusive: 22.4 µM [inhibitor, partial curve, poor fit] | – |
| COc1ccc(CNC(=O)Cn2nc(C)c3sc(C(C)C)nc3c2=O)cc1 | inactive | – |
| O=C(Cn1nnc(-c2ccccc2)n1)NCc1ccc2c(c1)OCO2 | inconclusive: 2.51 µM [inhibitor, full curve, poor fit] | – |
| Cc1ccc(C(=O)Nc2nnc(-c3ccco3)o2)cc1 | inconclusive: 39.8 µM [inhibitor, partial curve, poor fit] | – |

| SMILES | Potency | activity change, negative = inhibition |
| --- | --- | --- |
| O=C(c1c[nH]c2ccc(S(=O)(=O)N3CCOCC3)cc2c1=O)N1CCN(c2ccccn2)CC1 | inactive | – |
| CC1(C)Cc2c(C#N)c(N3CCN(C(=O)C(=O)N4CCOCC4)CC3)nc(-c3ccco3)c2CO1 | – | inconclusive: -43% [inhibitor] |
| Cn1c(SCC(=O)N/N=C/c2ccco2)nc2ccccc21 | inactive | – |
| O=C(Nc1ccc([N+](=O)[O-])cc1)c1cccc([N+](=O)[O-])c1 | inconclusive: 63.1 µM [inhibitor, partial curve, poor fit] | – |
| NC(COCc1ccccc1)c1csc(NC(=O)Nc2cccc(Cl)c2)n1 (stereo not drawn) | inconclusive: 89.1 µM [inhibitor, single point] | – |
| CN1CCC(N(C)S(=O)(=O)c2ccc(NC(=O)COc3ccc(F)cc3)cc2)CC1 | inconclusive: 56.2 µM [inhibitor, partial curve, poor fit] | – |
| COc1ccc2[nH]c3c(=O)n(Cc4ccc(C(=O)NCC5CCCO5)cc4)c(=S)[nH]c3c2c1 (stereo not drawn) | inactive | – |
| CCCn1c(N)c(C(=O)CSc2nnc(-c3cccnc3)n2-c2ccc(C)cc2C)c(=O)[nH]c1=O | inconclusive: 126 µM [inhibitor, single point] | – |
| COc1ccc(C(=O)C2CCCN(Cc3c(O)cccc3OC)C2)cc1OC (stereo not drawn) | inactive | – |
| COc1ccc(OCC(=O)Nc2ccc3c(c2)nc(CN2CCCC2)n3C)cc1 | inactive | – |
| FC(F)(F)c1ccc(N2C3CCC2CN(Cc2cccc(-c4cccs4)c2)C3)cc1 | inconclusive: 20 µM [inhibitor, full curve, poor fit] | – |
| COc1ccccc1CN1CCCC(C(=O)N(C)Cc2ccccc2)C1 (stereo not drawn) | inconclusive: 0.398 µM [inhibitor, full curve, poor fit] | – |
| O=C1C(Cc2ccccc2)Nc2ncnc(N3CCN(c4ccccc4)CC3)c2N1Cc1ccc(Cl)cc1 (stereo not drawn) | inconclusive: 50.1 µM [inhibitor, partial curve, poor fit] | – |
| CCCCn1nnnc1C1(C)CCC(=O)N1CC(F)(F)F (stereo not drawn) | inconclusive: 39.8 µM [inhibitor, single point] | – |
| O=C(c1nnn2c1COC(c1ccc(Cl)cc1)C2)N1CCSCC1 (stereo not drawn) | inactive | – |
| CCOc1cccc(NC(=O)c2ccccc2)c1 | inconclusive: 3.16 µM [inhibitor, full curve, poor fit] | – |
| CCNC(=S)NNc1ccccc1 | inconclusive: 31.6 µM [inhibitor, partial curve, poor fit] | – |
| CCn1c(-c2cc(OC)c(OC)c(OC)c2)n[nH]c1=S | inconclusive: 35.5 µM [inhibitor, partial curve, poor fit] | – |
| CCN(CC)CCNc1nc2c(c(=O)n(C)c(=O)n2C)n1Cc1ccc(C)cc1 | inconclusive: 39.8 µM [inhibitor, partial curve, poor fit] | – |
| CCCc1nc2c(C)cc(Br)cn2c1Cc1ccccc1 | inconclusive: 79.4 µM [inhibitor, partial curve, poor fit] | – |
| CC(=O)Nc1ccc(NC(=O)CNC(=O)c2ccc3nc(-n4cccc4)sc3c2)cc1 | inactive | – |
| O=C(CC1Sc2ccc(C(F)(F)F)cc2NC1=O)NOC1CCCCO1 (stereo not drawn) | inactive | – |

Part of the list above in a different format.
CCCn1c(N)c(C(=O)CSc2nnc(-c3cccnc3)n2-c2ccc(C)cc2C)c(=O)[nH]c1=O
  Potency: inconclusive: 126 µM [inhibitor, single point]
COc1ccccc1CN1CCCC(C(=O)N(C)Cc2ccccc2)C1 (stereo not drawn)
  Potency: inconclusive: 0.398 µM [inhibitor, full curve, poor fit]
CCCCn1nnnc1C1(C)CCC(=O)N1CC(F)(F)F (stereo not drawn)
  Potency: inconclusive: 39.8 µM [inhibitor, single point]
CCN(CC)CCNc1nc2c(c(=O)n(C)c(=O)n2C)n1Cc1ccc(C)cc1
  Potency: inconclusive: 39.8 µM [inhibitor, partial curve, poor fit]
